In patent publication US20230100941A1, “MOLECULES TARGETING MUTANT RAS PROTEIN” (AELIN THERAPEUTICS, priority 2020, published 2023):
No constants are given. Whether binding was seen depends on the method and setting. In cells and extracts the contact can be indirect. Some results given as binding are weak or reduced against the parent protein; the word gives no strength.

Tests used:
[1] = target: KRAS protein of NCI-H441 lung adenocarcinoma cells (KRAS G12V mutant) (human) (UniProt P01116); assay: co-immunoprecipitation from NCI-H441 cells, streptavidin-coated beads, KRAS Western blot (FIG. 7 legend)
[2] = target: KRAS protein of NCI-H441 lung adenocarcinoma cells (KRAS G12V mutant) (human) (UniProt P01116); assay: co-immunoprecipitation: NCI-H441 cells treated with 25 µM biotinylated pept-in overnight, streptavidin-coated beads, KRAS Western blot
[3] = target: KRAS G12V mutant, produced by in vitro translation (human) (UniProt P01116); assay: in vitro translation of KRAS with 10 µM biotinylated pept-in, streptavidin pull-down, KRAS Western blot
[4] = target: KRAS G12V expressed in RASless MEFs (human) (UniProt P01116); assay: co-immunoprecipitation: RASless MEFs treated with 25 µM biotinylated pept-in, streptavidin-coated beads, KRAS Western blot
[5] = target: KRAS G12V expressed in RASless MEFs (human) (UniProt P01116); assay: co-immunoprecipitation from RASless MEFs, streptavidin beads, KRAS Western blot (FIG. 11 legend)
[6] = target: KRAS G12V mutant, produced by in vitro translation (human) (UniProt P01116); assay: in vitro translation of KRAS with biotinylated pept-in, streptavidin pull-down, KRAS Western blot (FIG. 6 legend)
[7] = target: KRAS G12C mutant, produced by in vitro translation (human) (UniProt P01116); assay: in vitro translation of KRAS with 10 µM biotinylated pept-in, streptavidin pull-down, KRAS Western blot
[8] = target: KRAS G12C mutant, produced by in vitro translation (human) (UniProt P01116); assay: in vitro translation of KRAS with biotinylated pept-in, streptavidin pull-down, KRAS Western blot (FIG. 6 legend)

Measured: binding

KVVVGAVKGSKVVVGAVK (N-terminally biotinylated; state of the C-terminus not stated for this version) [04-006-N007, biotinylated version of pept-in 04-006-N001]
not listed: [7] | [8]
binds: all other assays above

KVVVGAVGKGSKVVVGAVGK (N-terminally biotinylated; state of the C-terminus not stated for this version) [04-015-N026, biotinylated version of pept-in 04-015-N001]
binds: all assays above

KVVVGAVGVGKGSKVVVGAVGVGK (N-terminally biotinylated; state of the C-terminus not stated for this version) [04-033-N003, biotinylated version of pept-in 04-033-N001]
not listed: [7] | [8]
binds: all other assays above
